Record: PubChem BioAssay AID1224830 (NIAID, 2016)
Here is an unselected part of about 18,000 reagents tested. Over the whole deposit, about 2,900 (16%) were called active. 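Calls are made per well; low scores hint the gene aids the LPS response, high scores that it dampens it.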 A number with no mark means an inactive call. Repeated entries: four replicate wells of each siRNA pool.

- Assay: 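Genes whose knock-down alters the TNF-alpha reporter response to LPS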 (primary screen)
- System: human THP-1 monocytic leukaemia cells, TNF dual-luciferase reporter clone, PMA-differentiated to macrophage-like cells
- Knock-down reagent: siRNA pool against human genes, 50 nM
- Time to read-out: LPS for 4 h, given about 3 days after siRNA transfection
- Challenge: bacterial LPS (TLR4 ligand), 10 ng/ml
- Read-out: 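TNF firefly reporter luminescence divided by renilla, normalised to the plate median, then turned into a robust z-score for each replicate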
- Reading the numbers: TNF reporter robust z-score: higher = stronger TNF reporter response to LPS
- Active means: 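a well is active when its z-score exceeds 2.8 or falls below -1.5; control wells carry no call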

no.	gene symbol	PubChem SID	TNF reporter robust z-score
1	SPDYC	SID315464454	-1.1
2	SPDYC	SID315464454	-0.19
3	SPDYC	SID315464454	-0.46
4	SPDYC	SID315464454	0.16
5	NT5E	SID315450315	-0.27
6	NT5E	SID315450315	-0.12
7	NT5E	SID315450315	-0.26
8	NT5E	SID315450315	0.85
9	IFT27	SID315454539	0.24
10	IFT27	SID315454539	2.11
11	IFT27	SID315454539	0.66
12	IFT27	SID315454539	-0.26
13	GRK1	SID315451131	-0.26
14	GRK1	SID315451131	-0.67
15	GRK1	SID315451131	-0.42
16	GRK1	SID315451131	0.19
17	KRTAP4-1	SID315460648	1.1
18	KRTAP4-1	SID315460648	2.22
19	KRTAP4-1	SID315460648	-0.12
20	KRTAP4-1	SID315460648	-0.2
21	ISOC1	SID315456404	0
22	ISOC1	SID315456404	1.99
23	ISOC1	SID315456404	0.05
24	ISOC1	SID315456404	2.6
25	RAPSN	SID315451052	-0.74
26	RAPSN	SID315451052	0.98
27	RAPSN	SID315451052	-0.29
28	RAPSN	SID315451052	1.15
29	PROX2	SID315463684	-0.77
30	PROX2	SID315463684	-0.51
31	PROX2	SID315463684	-0.27
32	PROX2	SID315463684	-0.39
33	MRPL2	SID315456440	0.59
34	MRPL2	SID315456440	0.39
35	MRPL2	SID315456440	-0.64
36	MRPL2	SID315456440	-0.17
37	OR6C3	SID315463465	-0.59
38	OR6C3	SID315463465	-0.82
39	OR6C3	SID315463465	-0.19
40	OR6C3	SID315463465	-0.02
41	CPVL	SID315457044	0.68
42	CPVL	SID315457044	0.63
43	CPVL	SID315457044	-0.31
44	CPVL	SID315457044	-0.07
45	HSPE1	SID315449352	0.49
46	HSPE1	SID315449352	-1.18
47	HSPE1	SID315449352	-1.69 (active)
48	HSPE1	SID315449352	-1.06
49	P2RX4	SID315450392	-0.35
50	P2RX4	SID315450392	-0.71
51	P2RX4	SID315450392	-0.09
52	P2RX4	SID315450392	1.11
53	TTPAL	SID315459252	-1.38
54	TTPAL	SID315459252	-0.52
55	TTPAL	SID315459252	-0.73
56	TTPAL	SID315459252	0.48
57	BFSP2	SID315452549	0.89
58	BFSP2	SID315452549	2
59	BFSP2	SID315452549	0.67
60	BFSP2	SID315452549	3 (active)
61	KCNE3	SID315453747	0.52
62	KCNE3	SID315453747	0.21
63	KCNE3	SID315453747	0.22
64	KCNE3	SID315453747	-0.09
65	PF4	SID315450521	-0.85
66	PF4	SID315450521	-0.39
67	PF4	SID315450521	-0.94
68	PF4	SID315450521	-0.83
69	PRADC1	SID315460291	-0.58
70	PRADC1	SID315460291	-0.08
71	PRADC1	SID315460291	-0.65
72	PRADC1	SID315460291	-0.09
73	TAS2R16	SID315456362	1.76
74	TAS2R16	SID315456362	2.66
75	TAS2R16	SID315456362	1.78
76	TAS2R16	SID315456362	1.59
77	JAKMIP1	SID315462543	1.23
78	JAKMIP1	SID315462543	0.9
79	JAKMIP1	SID315462543	0.31
80	JAKMIP1	SID315462543	0.6
81	TRABD	SID315459738	2.17
82	TRABD	SID315459738	0.92
83	TRABD	SID315459738	0.55
84	TRABD	SID315459738	0.04
85	APOL3	SID315459825	-0.2
86	APOL3	SID315459825	-0.4
87	APOL3	SID315459825	-0.08
88	APOL3	SID315459825	-0.45
89	OR4C45	SID315464825	2.02
90	OR4C45	SID315464825	3.57 (active)
91	OR4C45	SID315464825	0.12
92	OR4C45	SID315464825	-0.1
93	PLAA	SID315453237	1.17
94	PLAA	SID315453237	0.52
95	PLAA	SID315453237	1.18
96	PLAA	SID315453237	-0.01
97	IL5	SID315449463	3.2 (active)
98	IL5	SID315449463	1.67
99	IL5	SID315449463	2
100	IL5	SID315449463	3.02 (active)
101	CEP192	SID315457425	-0.2
102	CEP192	SID315457425	-0.17
103	CEP192	SID315457425	-0.18
104	CEP192	SID315457425	0.35
105	PFN3	SID315464190	-1.82 (active)
106	PFN3	SID315464190	-1.17
107	PFN3	SID315464190	-1.15
108	PFN3	SID315464190	-1.24
109	ASH1L	SID315457922	-1.07
110	ASH1L	SID315457922	-1.5
111	ASH1L	SID315457922	-1.51 (active)
112	ASH1L	SID315457922	-1.01

Reagents listed so far called active:
gene symbol	PubChem SID	TNF reporter robust z-score
HSPE1	SID315449352	-1.69 (active)
BFSP2	SID315452549	3 (active)
OR4C45	SID315464825	3.57 (active)
IL5	SID315449463	3.2 (active)
IL5	SID315449463	3.02 (active)
PFN3	SID315464190	-1.82 (active)
ASH1L	SID315457922	-1.51 (active)
